# Measurements as given in the supplement of paper PMC3334620.
# Whole data set: some 33,000 sequences, median “E-score (-0.5 to 0.5)” near -0.015, cut for the highest 2% near 0.3. The list shows a part of the results.
# Biological target: T1, Abf1 (UniProt P14164)
# T1 sequence: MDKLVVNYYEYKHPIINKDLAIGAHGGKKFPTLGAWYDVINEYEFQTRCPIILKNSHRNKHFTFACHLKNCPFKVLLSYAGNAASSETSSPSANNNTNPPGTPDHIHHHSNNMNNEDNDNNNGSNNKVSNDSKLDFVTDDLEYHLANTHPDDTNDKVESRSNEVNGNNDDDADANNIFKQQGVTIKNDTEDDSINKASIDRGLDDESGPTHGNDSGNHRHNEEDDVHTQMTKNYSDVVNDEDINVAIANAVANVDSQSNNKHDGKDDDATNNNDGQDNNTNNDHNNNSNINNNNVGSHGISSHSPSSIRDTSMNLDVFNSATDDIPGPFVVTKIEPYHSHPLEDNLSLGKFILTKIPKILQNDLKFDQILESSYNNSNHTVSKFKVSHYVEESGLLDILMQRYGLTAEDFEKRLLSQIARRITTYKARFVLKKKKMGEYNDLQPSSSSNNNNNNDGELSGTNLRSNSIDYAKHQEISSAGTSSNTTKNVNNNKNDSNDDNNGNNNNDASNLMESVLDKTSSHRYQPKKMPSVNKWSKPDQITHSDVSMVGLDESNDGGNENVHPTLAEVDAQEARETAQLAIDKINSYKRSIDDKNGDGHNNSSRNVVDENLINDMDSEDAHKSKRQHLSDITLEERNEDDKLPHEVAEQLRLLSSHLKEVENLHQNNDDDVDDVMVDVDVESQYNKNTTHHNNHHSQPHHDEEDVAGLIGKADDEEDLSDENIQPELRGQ
# Test: PBM E-score (8-mer binding enrichment) (E-score (-0.5 to 0.5)); higher = stronger / more preferred TF binding
# Details: protein concentration: 200 nM; construct: GST-full length
# In short: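 Universal all-10-mer Agilent arrays, fresh or stripped once, were converted to double-stranded form by primer extension. GST-tagged yeast transcription factors from PURExpress in vitro transcription/translation, full-length or DNA-binding domain only, were applied at about 100-200 nM and detected with fluorescent anti-GST. After masliner normalisation, the Universal PBM Analysis Suite scored each ungapped eight-base word together with its reverse complement by E-score.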
row,Sequence,PBM E-score
1,TACGTCAA,0.117
2,CCTGAGCG,-0.047
3,CACACATA,-0.133
4,CAGTACTC,-0.238
5,AACGGTGT,0.125
6,GCAGTGAA,-0.0423
7,CTGTGCAA,0.0274
8,CCGTGACC,0.157
9,GAAGGCTC,-0.153
10,CTGACGCA,-0.203
11,CCACCGTA,0.341
12,AGGCTCTC,-0.287
13,CCCTAGTC,-0.269
14,CAGCACGG,0.147
15,ACGAGTAG,0.198
16,AACTTATA,0.0716
17,ATCAGCGG,-0.201
18,CTAAGAAC,-0.114
19,TCTTCGAA,-0.00519
20,CACATGAA,-0.00507
21,ATAAGAAC,0.244
22,ATACCAAT,0.12
23,AATTTGCC,-0.136
24,CTTCGACC,-0.0331
25,TATTCTCA,0.00152

row,Sequence,PBM E-score
1,AAATACGG,0.314
2,GATTAGCC,-0.0198
3,CAATGCCG,-0.0313
4,CTTATTGC,-0.138
5,AAGTATGT,0.0702
6,CAGGCGCA,-0.201
7,AGAACGTG,0.136
8,AATAACAT,0.21
9,AACTTCGA,-0.0314
10,CTCAGATA,0.2
11,TAGGGTCA,0.0468
12,ACATCGAC,-0.0198
13,AATTTACT,0.151
14,CAACCTTG,-0.0633
15,CGGTGGGC,-0.264
16,AGCAGTGC,-0.18
17,TAGGCGGA,-0.0812
18,TTGCGCAA,0.119
19,ATCCCACC,-0.258
20,CGCATTTA,0.228
21,CCCAGAGG,-0.481
22,AGACCGCC,-0.16
23,CCCGGACG,0.00493
24,ATCACCAA,0.24
25,ATATCCCG,0.191

# Reprinted at random: 6 entries already listed.
row,Sequence,PBM E-score
2,CCTGAGCG,-0.047
20,CGCATTTA,0.228
24,ATCACCAA,0.24
16,AACTTATA,0.0716
8,AATAACAT,0.21
16,AGCAGTGC,-0.18

# The list continues.

row,Sequence,PBM E-score
1,ATCCGAAG,-0.109
2,AGGCGCAA,0.00332
3,TTCCGCAA,-0.077
4,GGTTCCGA,-0.0014
5,GAACCCTC,-0.194
6,CATAGTAC,0.1
7,GTACCCAC,-0.2
8,CGAACTAG,0.00367
9,CGTCTATC,0.0313
10,CAGTTTCA,-0.0826
11,CTTGTAGA,-0.145
12,GTAACATA,0.0896
13,GTTTGCTA,-0.0151
14,CCACTATC,0.0206
15,AGGCACGC,0.0267
16,TTAACGAA,0.207
17,GAACTTAA,0.043
18,CTTCCGCC,-0.12
19,ATCATTGA,0.282
20,ATGAGAGC,0.00671
21,GTATGACA,0.176
22,ACATCCGT,0.0663
23,ATGGCTGG,-0.191
24,ATCAAGGC,-0.111
25,CCGGGGTC,-0.138

# An excerpt of these results, bar-delimited:
row | Sequence | PBM E-score
3 | TTCCGCAA | -0.077
4 | GGTTCCGA | -0.0014
5 | GAACCCTC | -0.194

# (next part)

row,Sequence,PBM E-score
1,GATCACCA,0.308
2,ACGCAACA,0.286
3,CACCAGCA,0.0489
4,CTCAGCAC,0.074
5,AAACGGCC,0.0186
6,CCTGGAAA,-0.0105
7,CGGGTTGA,-0.206
8,CCTTCGCA,-0.0677
9,TACGCGTA,-0.0262
10,GTGGAGAA,0.0678
11,GTGATGCA,0.185
12,GCTACCTA,-0.127
13,ACTACGAA,0.205
14,GTTCCCTA,-0.0194
15,AACGTCCG,0.103
16,GATCACTA,0.389
17,CGATAATA,0.326
18,TAAATTTA,0.258
19,TCTTGTCA,0.213
20,AGTCCGCA,-0.33
21,CGTCCGTC,-0.0636
22,ACAAAAGA,0.202
23,CTTCGTCC,0.0852
24,GAGCGGTA,-0.1
25,CACGATGC,0.208

row,Sequence,PBM E-score
1,AACCATCT,-0.0763
2,AGTTTAGG,-0.146
3,TAAAGCGA,0.121
4,ATGGGTAC,0.067
5,GCTGATAA,0.0596
6,GGACTACA,-0.177
7,AATGCAGA,-0.00439
8,CCCCTCGC,-0.201
9,CGTTCGAA,0.311
10,CATAGATC,0.0272
11,CGGAAAAC,0.00296
12,AAACTACG,0.0358
13,AACTAAAA,-0.00124
14,CACTCCCA,-0.0696
15,TGGTGTAA,-0.037
16,ATTCGTCG,0.31
17,ATTACAAT,0.0631
18,CGCATGAG,-0.162
19,AACGTATA,0.1
20,CGTGGCCA,-0.0396
21,AATGCGCC,-0.0187
22,CCATTTTA,0.105
23,GGAAGGCA,-0.268
24,ATAGTAGC,0.145
25,ATTTCTCC,-0.0555

row,Sequence,PBM E-score
1,AACTTTCT,0.0402
2,CGGATCGC,0.0254
3,GGACGGCA,0.163
4,GTGTGACA,0.116
5,ATCGAGTG,0.0393
6,ACTTGCCG,0.0368
7,GGAGCACC,-0.0207
8,AAGCTGAA,-0.105
9,ATCAGGAC,0.103
10,AGGTTTCG,-0.199
11,CTGACAAC,-0.0598
12,AGTATGGC,-0.0832
13,AAGGTGCC,-0.0626
14,ATCGCCGC,-0.00435
15,GTCCGCGA,0.196
16,CTGCAGCC,-0.22
17,CGACCACG,0.231
18,GAGAATGA,0.161
19,ACGGCTTC,-0.0541
20,GGCCTCCA,-0.108
21,GTTGATAA,0.199
22,ATACAAAT,0.0807
23,CGATGAAG,0.0345
24,AAGCATCG,0.266
25,ACCGATCT,-0.344

row,Sequence,PBM E-score
1,ATCTTCCG,0.162
2,ACTGTTGG,-0.142
3,ATTTCTTA,0.0563
4,GCCCCCGA,-0.346
5,AGACGAAT,0.288
6,TAATAGCA,-0.122
7,ATTTAGTG,0.166
8,CCTTAACA,0.00924
9,AGGGGATA,-0.071
10,CCGCAATC,0.00423
11,AGAGTCTC,-0.145
12,CGTAAACG,0.00931
13,CTTGGGAC,0.163
14,ATAGCACA,-0.057
15,ACGGTTAC,0.11
16,AGGTGTAT,-0.208
17,ATGATATA,0.403
18,CTACTCCC,-0.12
19,CGGGTTGC,-0.142
20,GACCGCCC,-0.159
21,ACCGTTTC,0.0554
22,CTACCGTA,0.117
23,AAGTCTGT,0.00842
24,CCGACAGC,-0.246
25,AAATAAAC,0.085

row,Sequence,PBM E-score
1,ATACGAAG,0.328
2,CAAATATG,-0.0682
3,CTAACCAG,-0.1
4,AAGACGAA,0.223
5,ATCTCTCC,0.0195
6,TAATGCAA,-0.00797
7,CCCTTTAG,-0.269
8,CTACTAGA,-0.0227
9,CCGTAGGA,0.262
10,CAGCGCTG,-0.0266
11,AAACAGGA,0.0421
12,GCCAACGC,0.0526
13,GATCAATC,0.0842
14,ACGACATA,0.295
15,AGCAGCGA,0.167
16,AACGTTGC,-0.0203
17,CTTAATCA,0.127
18,GTAAGGGA,0.115
19,AAACGGGT,0.0669
20,GCAAACCC,-0.203
21,CGCGAGTC,-0.0453
22,CGAGTGTA,0.153
23,ACACGGAT,-0.0137
24,CCTATAGG,-0.201
25,CACCGCCC,-0.0835

row,Sequence,PBM E-score
1,CTTGCTGA,-0.0447
2,ACAATACT,0.202
3,AAGCTTCA,-0.118
4,CTAGGACA,0.00967
5,AAGACTCT,-0.133
6,GGTTGTCA,0.117
7,AGGACCTC,-0.165
8,TGCATAAA,0.0266
9,CCGACTTC,-0.25
10,GCATTTGA,0.103
11,ACTTCGTC,0.227
12,AGTTCCGA,0.0146
13,ACGGGGTA,0.04
14,CGCGGCAC,-0.00367
15,CACGAAGC,0.201
16,ACTTGCCT,-0.0155
17,GTTTCCCA,0.0184
18,GATGCGAC,0.108
19,AAAATTCC,-0.0445
